According to PubChem BioAssay AID250 (DTP/NCI, 2004):
The list does not hold the whole screen: it gathers tests that were run many times, whatever their T/C, doses with no T/C, and many T/C values between a quarter and a half above the control. Further doses and runs are listed elsewhere. T/C gives the treated animals as a percentage of the vehicle group. Some entries give survivors of the animals treated and no T/C: the source holds a T/C of zero for them, seemingly a mark for toxic or unscored doses. Some survivor counts are full or nearly so, which does not show that the dose was tolerated: survival well below the control is almost never listed, so the zero probably covers shortened survival too. For part of these data: Counts of survivors are from the toxicity check (mostly the fifth day) where no day follows; animals may have died later. Schedule codes are those of the source, taken here to give the interval after Q, in days (D) or hours (H), and the number of doses after X. Some schedules carry Z or #; the key to these is not given. For part of these data: For survival time, the PubChem record calls one and a half times the control and up active, and a quarter to a half above the control has no call in these data; cut-offs in other NCI protocols can differ. Some doses were run more than once; their values stand side by side, smallest first. Some T/C values are followed by the survivors on the day toxicity was checked, most often the fifth; without a count, all were alive then.

Tests used:
[1] = tested on: BDF1 mice, L1210 leukemia sc, survival T/C; assay: NCI In Vivo Anticancer Drug Screen. Data for tumor model L1210 Leukemia (subcutaneous) in B6D2F1 (BDF1) mice; conditions: higher T/C = longer survival
Procedure, shortened: (§1)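 Tumors were transplanted into mice, the animals were treated with compound, survival or tumor size was then measured, and treated values were divided by vehicle-control values.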

[2] = tested on: BDF1 mice, L1210 leukemia sc; assay: as above; conditions: higher T/C = longer survival
Procedure, shortened: as §1

[3] = T/C endpoint: median survival time, dose: 39.0 mg/kg/injection, schedule: Q01DX Z (sc), vehicle: water
[4] = T/C endpoint: median survival time, dose: 65.0 mg/kg/injection, schedule: Q01DX Z (sc), vehicle: water
[5] = T/C endpoint: median survival time, dose: 23.0 mg/kg/injection, schedule: Q01DX Z (sc), vehicle: saline
[6] = T/C endpoint: median survival time, dose: 500.0 mg/kg/injection, schedule: Q01DX Z (sc), vehicle: methylcellulose (MC)

CCOC(=O)NP(=O)(N1CC1)N1CC1
survivor count ([1]; T/C endpoint: median survival time, dose: 8.4 mg/kg/injection, schedule: Q01DX Z (sc), vehicle: water): 2 of 10 | survivor count ([1]; T/C endpoint: median survival time, dose: 8.4 mg/kg/injection, schedule: Q02DX Z (sc), vehicle: water): 6 of 10 | survivor count ([1]; T/C endpoint: median survival time, dose: 8.4 mg/kg/injection, schedule: Q## X Z (sc), vehicle: water): 6 of 10 | survivor count ([1]; T/C endpoint: median survival time, dose: 39.0 mg/kg/injection, schedule: Q## X Z (sc), vehicle: water): 6 of 10 | survivor count ([1]; T/C endpoint: median survival time, dose: 108.0 mg/kg/injection, schedule: Q02DX Z (sc), vehicle: water): 5 of 10 | T/C ([2]; T/C endpoint: median survival time, dose: 14.0 mg/kg/injection, schedule: Q01DX001 (sc), vehicle: water): 125 % of control [8 of 10 alive] | T/C ([2]; T/C endpoint: median survival time, dose: 14.0 mg/kg/injection, schedule: Q02DX Z (sc), vehicle: water): 145 % of control [9 of 10 alive] | T/C ([2]; T/C endpoint: median survival time, dose: 14.0 mg/kg/injection, schedule: Q07DX Z (sc), vehicle: water): 130 % of control [7 of 10 alive] | T/C ([2]; T/C endpoint: median survival time, dose: 14.0 mg/kg/injection, schedule: Q## X Z (sc), vehicle: water): 130 % of control [9 of 10 alive] | T/C ([2]; T/C endpoint: median survival time, dose: 23.0 mg/kg/injection, schedule: Q01DX001 (sc), vehicle: water): 145 % of control | T/C ([2]; T/C endpoint: median survival time, dose: 23.0 mg/kg/injection, schedule: Q01DX Z (sc), vehicle: water): 140 % of control [9 of 10 alive] | T/C ([2]; T/C endpoint: median survival time, dose: 23.0 mg/kg/injection, schedule: Q07DX Z (sc), vehicle: water): 130 % of control [8 of 10 alive] | T/C [2, 3]: 130 % of control [8 of 10 alive] | T/C ([2]; T/C endpoint: median survival time, dose: 39.0 mg/kg/injection, schedule: Q02DX Z (sc), vehicle: water): 140 % of control [9 of 10 alive] | T/C ([2]; T/C endpoint: median survival time, dose: 65.0 mg/kg/injection, schedule: Q01DX001 (sc), vehicle: water): 135 % of control [7 of 10 alive] | T/C [2, 4]: 130 % of control [8 of 10 alive] | T/C ([2]; T/C endpoint: median survival time, dose: 65.0 mg/kg/injection, schedule: Q02DX Z (sc), vehicle: water): 135 % of control [9 of 10 alive] | T/C ([2]; T/C endpoint: median survival time, dose: 65.0 mg/kg/injection, schedule: Q07DX Z (sc), vehicle: water): 135 % of control [9 of 10 alive] | T/C ([2]; T/C endpoint: median survival time, dose: 65.0 mg/kg/injection, schedule: Q## X Z (sc), vehicle: water): 130 % of control [9 of 10 alive] | T/C ([2]; T/C endpoint: median survival time, dose: 108.0 mg/kg/injection, schedule: Q01DX001 (sc), vehicle: water): 130 % of control [8 of 10 alive] | T/C ([2]; T/C endpoint: median survival time, dose: 108.0 mg/kg/injection, schedule: Q07DX Z (sc), vehicle: water): 130 % of control [7 of 10 alive] | T/C ([2]; T/C endpoint: median survival time, dose: 108.0 mg/kg/injection, schedule: Q## X Z (sc), vehicle: water): 130 % of control | T/C ([2]; T/C endpoint: median survival time, dose: 180.0 mg/kg/injection, schedule: Q01DX001 (sc), vehicle: water): 130 % of control [8 of 10 alive] | T/C ([2]; T/C endpoint: median survival time, dose: 180.0 mg/kg/injection, schedule: Q07DX Z (sc), vehicle: water): 130 % of control [8 of 10 alive] | T/C ([2]; T/C endpoint: median survival time, dose: 180.0 mg/kg/injection, schedule: Q## X Z (sc), vehicle: water): 130 % of control

S=P(N1CCOCC1)(N1CC1)N1CC1
survivor count [1, 5]: 5 of 8 | T/C [2, 5]: 132 and 145 % of control | T/C ([2]; T/C endpoint: median survival time, dose: 39.0 mg/kg/injection, schedule: Q01DX Z (sc), vehicle: saline): 148 % of control | T/C ([2]; T/C endpoint: median survival time, dose: 39.0 mg/kg/injection, schedule: Q## X Z (sc), vehicle: saline): 130 % of control | T/C ([2]; T/C endpoint: median survival time, dose: 65.0 mg/kg/injection, schedule: Q01DX Z (sc), vehicle: saline): 128 and 145 % of control | T/C ([2]; T/C endpoint: median survival time, dose: 108.0 mg/kg/injection, schedule: Q01DX001 (sc), vehicle: saline): 130 % of control [7 of 8 alive] | T/C ([2]; T/C endpoint: median survival time, dose: 108.0 mg/kg/injection, schedule: Q01DX Z (sc), vehicle: saline): 130 % of control | T/C ([2]; T/C endpoint: median survival time, dose: 108.0 mg/kg/injection, schedule: Q## X Z (sc), vehicle: saline): 125 % of control | T/C ([2]; T/C endpoint: median survival time, dose: 180.0 mg/kg/injection, schedule: Q01DX001 (sc), vehicle: saline): 130 % of control | T/C ([2]; T/C endpoint: median survival time, dose: 180.0 mg/kg/injection, schedule: Q01DX Z (sc), vehicle: saline): 130 % of control | T/C ([2]; T/C endpoint: median survival time, dose: 180.0 mg/kg/injection, schedule: Q## X Z (sc), vehicle: saline): 125 % of control | T/C ([2]; T/C endpoint: median survival time, dose: 300.0 mg/kg/injection, schedule: Q01DX001 (sc), vehicle: saline): 130 % of control [7 of 8 alive] | T/C ([2]; T/C endpoint: median survival time, dose: 300.0 mg/kg/injection, schedule: Q## X Z (sc), vehicle: saline): 130 % of control

O=C(Nc1ccc(S(=O)(=O)O)cc1)c1ccc([N+](=O)[O-])cc1
survivor count ([1]; T/C endpoint: median survival time, dose: 1.08 mg/kg/injection, schedule: Q01DX Z (sc), vehicle: water): 5 of 10 | survivor count ([1]; T/C endpoint: median survival time, dose: 1.8 mg/kg/injection, schedule: Q01DX Z (sc), vehicle: water): 6 of 10 | survivor count ([1]; T/C endpoint: median survival time, dose: 3.0 mg/kg/injection, schedule: Q01DX Z (sc), vehicle: water): 6 of 10 | T/C ([2]; T/C endpoint: median survival time, dose: 5.0 mg/kg/injection, schedule: Q01DX Z (sc), vehicle: water): 133 % of control [7 of 10 alive] | T/C [2, 3]: 133 % of control [9 of 10 alive] | T/C [2, 4]: 133 % of control [9 of 10 alive]

CCNc1nncs1
survivor count ([1]; T/C endpoint: median survival time, dose: 39.0 mg/kg/injection, schedule: Q01DX Z (sc), vehicle: other): 3 of 10 | T/C ([2]; T/C endpoint: median survival time, dose: 108.0 mg/kg/injection, schedule: Q01DX Z (sc), vehicle: other): 135 % of control [8 of 10 alive] | T/C ([2]; T/C endpoint: median survival time, dose: 500.0 mg/kg/injection, schedule: Q01DX Z (sc), vehicle: other): 130 % of control [9 of 10 alive]

Cc1cccc2c(Nc3ccc(NS(C)(=O)=O)cc3)c3ccc([N+](=O)[O-])cc3nc12
survivor count ([1]; T/C endpoint: mean survival time, dose: 40.0 mg/kg/injection, schedule: Q01DX009 (ip), vehicle: saline): 10 of 10 | survivor count ([1]; T/C endpoint: mean survival time, dose: 80.0 mg/kg/injection, schedule: Q01DX009 (ip), vehicle: saline): 10 of 10 | T/C ([2]; T/C endpoint: mean survival time, dose: 20.0 mg/kg/injection, schedule: Q01DX009 (ip), vehicle: saline): 129 % of control

C[C@]12CCC(=O)C=C1CC[C@H]1[C@@H]3CC[C@](O)(C(=O)CO)[C@@]3(C)C[C@H](O)[C@@]12F
survivor count [1, 6]: 6 of 10 | T/C ([2]; T/C endpoint: median survival time, dose: 108.0 mg/kg/injection, schedule: Q01DX Z (sc), vehicle: methylcellulose (MC)): 125 % of control | T/C ([2]; T/C endpoint: median survival time, dose: 180.0 mg/kg/injection, schedule: Q01DX Z (sc), vehicle: methylcellulose (MC)): 125 % of control | T/C [2, 6]: 125 % of control
